Measurements reported in doi:10.1101/2022.09.06.506542.
Results are given in words; binding and its absence hold for the method and conditions named. Binding seen in cells or lysates may run through a third protein.

Sequences of proteins named here, by UniProt entry; tags and fusion partners are left off.
UniProt P40763: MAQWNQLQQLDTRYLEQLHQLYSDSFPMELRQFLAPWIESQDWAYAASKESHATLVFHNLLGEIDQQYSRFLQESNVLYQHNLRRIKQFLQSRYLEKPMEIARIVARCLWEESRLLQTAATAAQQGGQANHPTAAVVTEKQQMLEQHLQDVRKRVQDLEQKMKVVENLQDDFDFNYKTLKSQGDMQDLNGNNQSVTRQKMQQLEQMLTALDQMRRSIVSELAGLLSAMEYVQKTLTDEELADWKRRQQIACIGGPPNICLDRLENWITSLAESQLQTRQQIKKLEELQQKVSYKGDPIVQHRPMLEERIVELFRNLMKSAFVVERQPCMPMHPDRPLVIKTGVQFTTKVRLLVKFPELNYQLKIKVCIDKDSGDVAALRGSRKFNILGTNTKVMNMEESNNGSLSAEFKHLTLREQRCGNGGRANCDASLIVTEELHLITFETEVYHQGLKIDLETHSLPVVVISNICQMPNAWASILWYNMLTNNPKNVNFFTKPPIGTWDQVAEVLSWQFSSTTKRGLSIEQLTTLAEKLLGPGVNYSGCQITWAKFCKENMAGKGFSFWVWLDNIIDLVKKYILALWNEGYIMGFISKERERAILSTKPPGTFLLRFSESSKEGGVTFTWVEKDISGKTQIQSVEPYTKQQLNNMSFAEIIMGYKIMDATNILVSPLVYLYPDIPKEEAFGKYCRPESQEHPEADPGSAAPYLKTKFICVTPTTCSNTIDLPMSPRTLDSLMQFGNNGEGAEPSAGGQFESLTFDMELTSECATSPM

Target: T1, ETV7 (UniProt Q9Y603)
T1 sequence: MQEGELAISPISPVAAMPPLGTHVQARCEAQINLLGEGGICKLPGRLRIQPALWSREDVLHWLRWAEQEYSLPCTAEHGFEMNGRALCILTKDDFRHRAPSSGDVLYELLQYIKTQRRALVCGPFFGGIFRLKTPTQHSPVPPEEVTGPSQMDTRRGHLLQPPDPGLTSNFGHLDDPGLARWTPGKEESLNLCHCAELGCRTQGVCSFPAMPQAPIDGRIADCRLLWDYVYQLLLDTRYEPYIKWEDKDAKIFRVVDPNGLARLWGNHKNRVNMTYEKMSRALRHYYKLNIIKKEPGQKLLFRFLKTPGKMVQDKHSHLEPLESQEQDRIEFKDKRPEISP
Experiment: co-IP

binding: no binding
Substance: phosphorylated STAT3 (from UniProt P40763 1-770)
